# From patent US20220091133A1, “METHODS AND ASSAYS FOR IMMUNE PHENOTYPING” (Washington University, priority 2020, published 2022)
# Test system: peripheral blood mononuclear cells (T cell IFN-γ production)
# Format: cell-based, human
smiles,measurement,value
"C[C@@H]1C[C@H]2[C@@H]3CCC4=CC(=O)C=C[C@]4(C)[C@@]3(F)[C@@H](O)C[C@]2(C)[C@@]1(O)C(=O)COP(=O)(O)O [dexamethasone, dexamethasone phosphate]",effect on the functional immune response on ELISpot,does not significantly affect
same,number of functional T cells producing interferon-γ and intensity of the response,decrease significantly
